Source: patent US20240050475A1
Results are given in words; binding and its absence hold for the method and conditions named. Some entries that bind do so weakly or less than the wild type.

Biological target: T1, recombinant PRDX4 (Homo sapiens (Human)) (UniProt Q13162)
T1 sequence: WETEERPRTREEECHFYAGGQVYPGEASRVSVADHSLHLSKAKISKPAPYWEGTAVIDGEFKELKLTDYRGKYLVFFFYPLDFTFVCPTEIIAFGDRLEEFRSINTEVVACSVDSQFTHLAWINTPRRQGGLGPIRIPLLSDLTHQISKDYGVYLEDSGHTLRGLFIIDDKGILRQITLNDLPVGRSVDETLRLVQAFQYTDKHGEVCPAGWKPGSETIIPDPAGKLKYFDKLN
Assay: immunoprecipitation of 10 ng recombinant PRDX4 with 11F2 beads, immunoblot with a commercial PRDX4 antibody

- binding: binds
B1: antibody 11F2 (antibody, V domains shown)
VH: QVQLQQSGAELVKPGTSVKLSCKASGYTFSTHHMHWIKETTGQGLEWIGIINPGNGGTKYNVKFKGKATLTVDSSSSTAFMQLGSLTPEDSAVYYCARGNPASFDYWGQGVMVTVSS
VL: DIQMTQSPSFLSASVGDRVTINCKASQNIYKYLNWYQQKLGEAPKRLIYNTNNLETDIPSRFSGSGSGTDYTFTISSLQPEDFATYFCLQHSNFPFTFGSGTKLEIKR
